The text below walks through data of publication PMC4066782, “The telomerase inhibitor Gno1p/PINX1 activates the helicase Prp43p during ribosome biogenesis” (Nucleic Acids Research, 2014).

The chains behind the UniProt entries cited, without tags or fusion partners.
UniProt P40160: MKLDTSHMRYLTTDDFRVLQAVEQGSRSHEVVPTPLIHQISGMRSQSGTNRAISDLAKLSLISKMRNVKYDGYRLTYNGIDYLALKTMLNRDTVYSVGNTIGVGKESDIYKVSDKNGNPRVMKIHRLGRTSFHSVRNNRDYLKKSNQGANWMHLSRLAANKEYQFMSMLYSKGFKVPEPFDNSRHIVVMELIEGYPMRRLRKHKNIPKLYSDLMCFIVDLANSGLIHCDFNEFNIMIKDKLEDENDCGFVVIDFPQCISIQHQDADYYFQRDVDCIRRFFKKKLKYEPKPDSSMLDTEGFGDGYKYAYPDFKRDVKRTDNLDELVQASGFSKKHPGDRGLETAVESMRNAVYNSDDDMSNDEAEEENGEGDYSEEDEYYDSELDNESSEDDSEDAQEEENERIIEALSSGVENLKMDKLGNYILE
UniProt P34241: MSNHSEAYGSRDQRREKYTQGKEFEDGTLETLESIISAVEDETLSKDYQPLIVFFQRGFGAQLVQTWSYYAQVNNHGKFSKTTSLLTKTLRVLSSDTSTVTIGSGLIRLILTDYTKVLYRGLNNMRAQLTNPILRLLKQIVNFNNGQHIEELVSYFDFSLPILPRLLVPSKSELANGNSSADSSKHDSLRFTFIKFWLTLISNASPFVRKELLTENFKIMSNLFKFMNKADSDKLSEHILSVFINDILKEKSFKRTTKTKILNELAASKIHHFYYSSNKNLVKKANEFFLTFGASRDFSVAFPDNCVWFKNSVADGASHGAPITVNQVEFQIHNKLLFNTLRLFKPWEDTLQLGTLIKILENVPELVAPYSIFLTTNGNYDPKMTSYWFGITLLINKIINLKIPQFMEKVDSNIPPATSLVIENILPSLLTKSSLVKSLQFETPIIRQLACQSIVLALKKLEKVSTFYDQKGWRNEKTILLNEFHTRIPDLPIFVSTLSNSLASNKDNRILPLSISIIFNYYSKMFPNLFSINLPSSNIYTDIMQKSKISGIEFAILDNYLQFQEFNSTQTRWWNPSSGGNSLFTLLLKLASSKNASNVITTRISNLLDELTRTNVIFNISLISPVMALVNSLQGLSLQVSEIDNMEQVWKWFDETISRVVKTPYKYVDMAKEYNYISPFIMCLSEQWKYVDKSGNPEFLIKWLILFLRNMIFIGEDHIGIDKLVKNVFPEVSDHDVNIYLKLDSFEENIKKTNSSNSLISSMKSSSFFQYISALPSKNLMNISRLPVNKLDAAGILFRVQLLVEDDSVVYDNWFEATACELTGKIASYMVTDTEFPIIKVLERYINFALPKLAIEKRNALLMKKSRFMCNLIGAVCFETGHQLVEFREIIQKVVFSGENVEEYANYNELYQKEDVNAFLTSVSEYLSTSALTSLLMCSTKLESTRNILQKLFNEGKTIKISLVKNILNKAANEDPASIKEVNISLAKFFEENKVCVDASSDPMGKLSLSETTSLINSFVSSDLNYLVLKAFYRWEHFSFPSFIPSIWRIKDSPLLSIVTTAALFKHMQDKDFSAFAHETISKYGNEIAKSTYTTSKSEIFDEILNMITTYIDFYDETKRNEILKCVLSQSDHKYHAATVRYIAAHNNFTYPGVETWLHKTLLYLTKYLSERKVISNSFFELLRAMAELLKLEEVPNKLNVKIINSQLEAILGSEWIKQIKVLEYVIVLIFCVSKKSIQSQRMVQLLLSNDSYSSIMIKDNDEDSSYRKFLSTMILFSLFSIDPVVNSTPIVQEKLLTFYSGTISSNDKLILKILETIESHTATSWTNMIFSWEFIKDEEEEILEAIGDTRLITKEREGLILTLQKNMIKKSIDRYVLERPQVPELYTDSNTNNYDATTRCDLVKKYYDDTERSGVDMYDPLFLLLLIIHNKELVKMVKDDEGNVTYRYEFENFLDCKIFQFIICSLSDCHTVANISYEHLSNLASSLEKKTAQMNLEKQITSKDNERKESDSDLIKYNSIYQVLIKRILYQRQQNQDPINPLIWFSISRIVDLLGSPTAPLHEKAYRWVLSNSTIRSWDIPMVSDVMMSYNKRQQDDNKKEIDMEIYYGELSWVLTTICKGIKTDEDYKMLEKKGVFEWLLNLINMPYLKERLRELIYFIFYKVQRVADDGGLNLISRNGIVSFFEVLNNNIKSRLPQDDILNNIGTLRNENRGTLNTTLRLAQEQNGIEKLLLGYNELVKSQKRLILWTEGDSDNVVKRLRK

What all share (experiment): co-IP; IgG sepharose beads precipitate the TAP- or ZZ-tagged protein from total yeast extracts; HA-tagged protein detected by western with anti-HA antibodies
Assay [1] has as its target Rio2p-TAP (S. cerevisiae) (UniProt P40160).
The target of assay [2] is T1, Utp13p-TAP (S. cerevisiae) (UniProt Q05946).
T1 sequence: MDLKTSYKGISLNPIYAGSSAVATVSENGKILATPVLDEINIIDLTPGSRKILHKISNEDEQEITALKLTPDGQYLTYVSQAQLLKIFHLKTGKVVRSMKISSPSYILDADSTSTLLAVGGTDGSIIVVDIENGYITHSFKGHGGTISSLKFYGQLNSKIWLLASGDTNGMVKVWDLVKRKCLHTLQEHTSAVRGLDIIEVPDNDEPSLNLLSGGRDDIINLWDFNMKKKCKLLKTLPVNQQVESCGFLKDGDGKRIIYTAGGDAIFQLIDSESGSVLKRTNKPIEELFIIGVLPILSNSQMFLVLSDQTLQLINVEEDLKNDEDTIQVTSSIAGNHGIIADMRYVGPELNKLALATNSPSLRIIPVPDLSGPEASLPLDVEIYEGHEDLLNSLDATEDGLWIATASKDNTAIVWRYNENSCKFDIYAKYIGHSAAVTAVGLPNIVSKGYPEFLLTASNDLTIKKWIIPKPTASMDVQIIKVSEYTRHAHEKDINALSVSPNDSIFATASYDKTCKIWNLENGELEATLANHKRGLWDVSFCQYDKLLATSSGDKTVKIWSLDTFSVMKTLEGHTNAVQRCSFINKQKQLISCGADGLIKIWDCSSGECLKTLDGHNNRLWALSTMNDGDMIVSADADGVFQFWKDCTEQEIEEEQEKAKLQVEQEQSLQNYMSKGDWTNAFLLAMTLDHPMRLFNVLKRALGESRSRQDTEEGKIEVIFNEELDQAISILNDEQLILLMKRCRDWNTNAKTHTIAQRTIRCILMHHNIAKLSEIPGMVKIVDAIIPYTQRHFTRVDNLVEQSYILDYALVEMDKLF

Another assay concerns the target Npa1p-ZZ (S. cerevisiae) (UniProt P34241).
The target in assay [3] is T2, Utp6p-TAP (S. cerevisiae) (UniProt Q02354).
T2 sequence: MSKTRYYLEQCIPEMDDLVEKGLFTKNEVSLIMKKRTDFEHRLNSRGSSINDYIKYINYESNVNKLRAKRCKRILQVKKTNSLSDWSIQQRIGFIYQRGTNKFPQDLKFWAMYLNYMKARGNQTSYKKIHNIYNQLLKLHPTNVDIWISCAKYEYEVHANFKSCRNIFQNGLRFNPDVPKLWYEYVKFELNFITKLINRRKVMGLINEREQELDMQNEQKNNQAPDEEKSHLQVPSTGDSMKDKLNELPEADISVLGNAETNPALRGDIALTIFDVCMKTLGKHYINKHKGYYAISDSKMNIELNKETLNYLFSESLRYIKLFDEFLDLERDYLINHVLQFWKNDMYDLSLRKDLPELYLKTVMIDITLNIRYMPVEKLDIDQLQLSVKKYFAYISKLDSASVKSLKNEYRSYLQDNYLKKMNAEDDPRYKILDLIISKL

The target in assay [4] is T3, Rix1p-TAP (S. cerevisiae) (UniProt P38883).
T3 sequence: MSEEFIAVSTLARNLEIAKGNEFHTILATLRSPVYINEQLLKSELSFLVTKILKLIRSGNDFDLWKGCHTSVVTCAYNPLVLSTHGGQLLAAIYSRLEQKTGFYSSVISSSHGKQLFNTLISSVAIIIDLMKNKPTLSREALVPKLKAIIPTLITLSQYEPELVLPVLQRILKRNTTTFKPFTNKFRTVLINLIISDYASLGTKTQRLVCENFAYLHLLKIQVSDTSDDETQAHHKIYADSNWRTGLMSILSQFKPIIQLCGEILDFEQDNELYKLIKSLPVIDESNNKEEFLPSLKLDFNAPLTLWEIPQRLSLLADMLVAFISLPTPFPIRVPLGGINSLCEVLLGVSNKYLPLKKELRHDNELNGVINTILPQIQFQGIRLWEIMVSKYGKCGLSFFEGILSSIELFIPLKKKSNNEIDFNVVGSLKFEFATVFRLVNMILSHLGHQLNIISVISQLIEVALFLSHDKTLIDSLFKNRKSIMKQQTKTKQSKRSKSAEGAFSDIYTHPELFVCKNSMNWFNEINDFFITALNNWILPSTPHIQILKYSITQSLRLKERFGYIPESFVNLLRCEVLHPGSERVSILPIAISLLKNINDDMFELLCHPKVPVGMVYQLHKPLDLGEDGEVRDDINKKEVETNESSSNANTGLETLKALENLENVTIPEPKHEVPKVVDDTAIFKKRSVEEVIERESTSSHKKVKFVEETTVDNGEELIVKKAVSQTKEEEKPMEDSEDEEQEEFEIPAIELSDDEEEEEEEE

Results are given in words; binding and its absence hold for the method and conditions named. Binding seen in cells or lysates may run through a third protein. Some results given as binding are weak or reduced against the parent protein; the word gives no strength. Where a sequence is shown, tags or fusion partners need not be part of it.

B1: Gno1p-HA (GNO1-HA-TRP1 cassette, made with plasmid pFA6a-3HA-TRP1) (protein, UniProt P53335 1-271)
chain: MGLAATRTKQRFGLDPRNTAWSNDTSRFGHQFLEKFGWKPGMGLGLSPMNSNTSHIKVSIKDDNVGLGAKLKRKDKKDEFDNGECAGLDVFQRILGRLNGKESKISEELDTQRKQKIIDGKWGIHFVKGEVLASTWDPKTHKLRNYSNAKKRKREGDDSEDEDDDDKEDKDSDKKKHKKHKKHKKDKKKDKKDKKEHKKHKKEEKRLKKEKRAEKTKETKKTSKLKSSESASNIPDAVNTRLSVRSKWIKQKRAALMDSKALNEIFMITND
B1: the binding result in assay [1] is recorded as “no binding”; in assay [2], “binds”; with Npa1p-ZZ (S. cerevisiae) it was “binds”; in assay [3] it was “binds”; in assay [4] it was “no binding”.
